This is one part of the list. Shown are side measurements of this screen, not its main read-out; they come without a call. Compounds called inactive in the main read-out are mostly missing here. Words in brackets tell the shape of the fitted curve; partial curves, single points and poor fits give uncertain potencies.

The test can be described thus: qHTS Assay for Lipid Storage Modulators in Drosophila S3 Cells.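 As to cell number change: cells counted by Cell Tracker Red CMTPX staining in the red channel.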 Conditions: BODIPY lipid droplet fluorescence, 18-24 h; for cell number change: measured here: cell count max response, cells fed with added oleic acid. Summed up: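 Laser-scanning cytometry quantifies lipid droplet accumulation (500–530 nm total intensity; droplet/cell object ratio) in oleic acid-fed (400 uM added) Drosophila S3 cells treated with a concentration series. 20 uM Triacsin C defined 100% inhibition.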

Where [1] appears, read: measured here: cell number channel AC50, cells fed with added oleic acid.
Setting [2] is: measured here: lipid fluorescence (Fed channel) AC50, cells fed with added oleic acid.

With `CCOC(=O)c1c(S(=O)(=O)NCC(=O)Nc2ccc(C)cc2)c(C)n(C)c1C`, the cell number change is 6.13%. The AC50 under setting [1] is 3.26 µM [rising, single point]. In addition, the AC50 under setting [2] was 5.17 µM [rising, single point]. Take `CCOCC(=O)Nc1ccc2c(c1)OCCO2`: the cell number change was -55.1%. The AC50 under setting [1] is 29.1 µM [falling, single point]. Besides, the AC50 under setting [2] is 5.17 µM [falling, single point]. Regarding `O=C(CSCc1ccco1)c1ccc(Cl)s1`, the cell number change is -5.33%. The AC50 under setting [2] was 29.1 µM [falling, single point].

As to `C=CCOc1ccc2c(c1)c(S(=O)(=O)c1ccc(C)cc1)cn2COC`, the cell number change was -27.2%. Under setting [2], the AC50 is 20.6 µM [rising, single point]. In the case of `CC1CC(C)CN(c2nc(NCc3ccco3)nc(N)c2[N+](=O)[O-])C1` (stereo not given), the cell number change is -35.1%. In addition, under setting [1], the AC50 was 14.6 µM [falling, partial curve, poor fit]. The AC50 under setting [2] is 32.6 µM [falling, partial curve, poor fit]. In the case of `CC1CC1C(=O)OCC(=O)Nc1ncc(Cl)cc1Cl` (stereo not given), the cell number change was found to be 10.4%. For `CC(C)CC1c2[nH]c3ccccc3c2CCN1C(=O)c1cnccn1` (stereo not given), the cell number change is -0.726%. Moreover, the AC50 under setting [2] was 6.51 µM [rising, partial curve]. Regarding `CCOC(=O)CSc1ncc(OC)c(=O)[nH]1`, the cell number change is -61.2%. The AC50 under setting [1] is 29.1 µM [falling, single point]. Also, the AC50 under setting [2] is 16.4 µM [falling, single point]. As for `CCCc1[nH]c2ccc(C(=O)OC)cc2c1CCC`, the cell number change amounted to 2.59%. The AC50 under setting [2] is 0.58 µM [rising, single point]. As to `Cc1cccc(NC(=O)CSc2n[nH]c(-c3cccnc3)n2)c1`, the cell number change came to 12.4%. Also, the AC50 under setting [2] is 1.46 µM [rising, partial curve].

As for `Cc1ccc(C(=O)Oc2cccc(NC(=O)c3cccs3)c2)cc1S(=O)(=O)N1CCOCC1`, the concentration at half-maximal activity (AC50) under setting [1] is 6.51 µM [falling, single point]. Take `Cc1cc(C(F)(F)F)n2nc(-c3cnn(C)c3C(F)(F)F)c(Br)c2n1`: the cell number change stood at 121%. Besides, the AC50 under setting [1] was 29.1 µM [rising, partial curve]. For `CCn1c(C)c(C)c2cc(C(=O)NCCCN3CCCC3)ccc21`, the cell number change is -23.2%. Turning to `Cc1[nH]c2ccccc2c1/C=C/c1cc[n+](C)cc1`, the cell number change was -63.8%. For the same compound, the AC50 under setting [1] is 29.1 µM [falling, single point]. For the same compound, the AC50 under setting [2] is 29.1 µM [falling, single point]. Regarding `Cc1cc(C(=O)NC2CCCc3c2cnn3-c2cccc(C)c2C)no1` (stereo not given), the cell number change is -24.3%. Besides, the AC50 under setting [1] was 0.92 µM [falling, full curve, poor fit]. Further, the AC50 under setting [2] is 11.6 µM [falling, single point]. In the case of `O=c1c2ccccc2nnn1CSc1nnc(-c2cccs2)n1Cc1ccccc1`, the cell number change came to 2.64%. Also, the AC50 under setting [2] is 23.1 µM [rising, single point]. Take `CCOc1ccc(C2/C(=C(\O)c3ccc4c(c3)OCCO4)C(=O)C(=O)N2CCCN2CCOCC2)cc1` (stereo not given): the cell number change was found to be 14.9%. Besides, the AC50 under setting [2] is 29.1 µM [rising, single point]. Regarding `CC(=O)Nc1ccc(S(=O)(=O)NCC(=O)N2CCN(S(=O)(=O)c3cccs3)CC2)cc1`, the cell number change was -4.26%. `COc1ccc(Cl)cc1NC(=O)c1cnc2n(c1=O)CCS2`: the cell number change came to 82.7%. Besides, the AC50 under setting [1] was 11.6 µM [rising, partial curve]. Moreover, the AC50 under setting [2] is 8.2 µM [rising, partial curve]. On to `O=S1(=O)CCN(Cc2cccc(C(F)(F)F)c2)CC1`, for which the cell number change was -3.87%. In addition, under setting [1], the AC50 is 0.58 µM [falling, single point]. Turning to `Cc1ccc(C)c(NC(=O)c2ccc3nccnc3c2)c1`, the cell number change is -17.9%. Moreover, the AC50 under setting [2] is 29.1 µM [rising, single point].

As to `CS(=O)(=O)N(CC(=O)N1CCCC1)c1cccc(Cl)c1`, the AC50 is 0.184 µM [rising, full curve, poor fit] under setting [1] and 0.231 µM [falling, full curve, poor fit] under setting [2]. In the case of `Cc1ccccc1NC(=O)c1[nH]cnc1C(=O)NN`, the cell number change was 22.5%. Besides, the AC50 under setting [2] is 29.1 µM [rising, single point]. Consider `Cc1cc(C)c(C(=O)CC(=O)c2ccccc2Cl)c(O)c1`, for which the cell number change was -2.04%. In addition, the AC50 under setting [2] is 29.1 µM [falling, single point]. As to `CCOc1ccc(S(=O)(=O)N2CCCCC2)cc1NC(=O)CN1C(=O)NC(C)(c2ccccc2)C1=O` (stereo not given), the cell number change is -2.62%. The AC50 under setting [2] is 2.91 µM [rising, single point]. For `COC(=O)c1sc(-c2ccc(C(C)(C)C)cc2)cc1NC(=O)CSCC(=O)O`, the cell number change is 24.6%. For the compound `CCc1ccc(CNC(=O)C2CCCN(S(=O)(=O)N(CC)c3ccccc3)C2)cc1` (stereo not given), the AC50 under setting [2] is 6.51 µM [rising, single point]. Consider `Cc1ccc(N=Cc2c(O)[nH]c3ccccc23)c([N+](=O)[O-])c1`, for which the cell number change came out at 32.9%. Moreover, under setting [1], the AC50 was 29.1 µM [rising, single point]. For `O=C(NC1CCCCC1)c1ccccc1NC(=S)NC(=O)C1CC1`, the cell number change amounted to 4.39%. The AC50 under setting [2] is 8.2 µM [rising, partial curve]. Take `CCCCCCCCCCS(=O)(=O)N/N=C/c1ccccc1OC`: the cell number change is -39.6%. Besides, the AC50 under setting [1] was 18.4 µM [falling, single point]. As to `N#Cc1ccc2c(c1)C[C@]1(CCCCN3C(=O)c4ccccc4C3=O)Oc3c(c(=O)oc4ccccc34)C2O1`, the cell number change stood at 10.3%. Further, the AC50 under setting [2] is 5.31 µM [rising, single point].

For the compound `CCOc1ccc(N(CC(=O)N2CCN(C(=O)CN(c3ccc(OCC)cc3)S(C)(=O)=O)CC2)S(C)(=O)=O)cc1`, the cell number change was determined as 4.99%. In addition, the AC50 under setting [2] was 29.1 µM [rising, single point].

As to `COc1ccc(NC(=O)CCNS(=O)(=O)c2ccccc2F)cc1S(N)(=O)=O`, the cell number change was -9.52%. Consider `O=C(NCCCN1CCOCC1)/C(=C/c1ccc(F)cc1)NC(=O)c1ccccc1`, for which the cell number change was -40.4%. In addition, the half-maximal activity concentration (AC50) under setting [2] was 2.91 µM [rising, single point]. With `Cc1cccc(NC(=O)c2cc(S(=O)(=O)c3ccccc3)ccc2Cl)c1`, the cell number change amounted to 12.2%. Also, the AC50 under setting [2] was 16.4 µM [rising, single point]. On to `CCc1ccc(Nc2nc(N)nc(CSc3nnnn3-c3ccccc3)n2)cc1`, for which the cell number change was -34.3%. Moreover, the AC50 under setting [1] was 32.6 µM [falling, single point]. With `CCCCN1C(=O)C(=O)N(CC(=O)Nc2sc(CC)cc2C(=O)OCC)C1=O`, the cell number change was 5.79%. Besides, the concentration at half-maximal activity (AC50) under setting [2] was 8.2 µM [rising, partial curve]. Consider `CCOC(=O)C1=C(C)NC(=O)NC1c1ccc(N(CC)CC)cc1` (stereo not given), for which the cell number change is -40.3%. Also, the AC50 under setting [1] was 23.1 µM [falling, single point]. Further, the AC50 under setting [2] was 23.1 µM [falling, partial curve].

Consider `CCCCOC(=O)Nc1ccc(C)c(Cl)c1`, for which the cell number change was -11.9%. The AC50 under setting [2] is 14.6 µM [falling, partial curve]. Consider `COc1ccc(C(=O)N/C(=C\c2cn(S(=O)(=O)N(C)C)c3ccccc23)C(=O)NC(C)C)cc1`, for which the cell number change was -29.8%. Besides, the AC50 under setting [2] is 6.51 µM [falling, full curve]. As for `O=C(CCN1C(=O)/C(=C\c2ccccc2)SC1=S)NCCCN1CCOCC1`, the AC50 under setting [1] is 0.146 µM [rising, full curve, poor fit]. On to `COc1cnc(-c2ccccn2)nc1Sc1ccc(Cl)cc1`, for which the cell number change was -5.02%. Further, the half-maximal activity concentration (AC50) under setting [1] was 0.411 µM [falling, single point]. Also, the AC50 under setting [2] was 6.51 µM [falling, single point]. Turning to `O=C(NCC(c1cccs1)N1CCOCC1)c1ccco1` (stereo not given), the cell number change is 10.3%. For the same compound, under setting [2], the AC50 was 2.06 µM [rising, partial curve].

Turning to `CC(C)CC1NC(=S)N(C2CCCCC2)C1=O` (stereo not given), the cell number change was -25.5%. Take `Cc1cc(NCCC(C)C)n2nc(C)c(-c3ccccc3)c2n1`: the cell number change is 22.5%. The AC50 under setting [2] is 0.58 µM [rising, single point].

As for `Cc1ccc(S(=O)(=O)N2CCCc3ccccc32)cc1C`, the cell number change worked out at 1.81%. Besides, under setting [2], the AC50 is 6.51 µM [rising, single point]. In the case of `CN(C)c1ccc(C(=S)N2CCOCC2)cc1Br`, the cell number change was 1.67%. `CC(c1ccccc1)C1CC(=O)N(Cc2ccco2)C1=O` (stereo not given): the cell number change is -2.68%.

On to `CC1(C)CC(=O)C(N=Nc2ccc(-c3ccccc3)cc2)=C(O)C1`, for which the cell number change is -30.9%. In addition, the AC50 under setting [1] was 32.6 µM [falling, single point].

With `OC(CNCCc1ccc(Cl)cc1)COCc1ccco1` (stereo not given), the cell number change was found to be 5.17%. Besides, under setting [2], the AC50 was 6.51 µM [falling, single point]. `Cc1ccc(CNC(=S)NC2CCCCC2)cc1`: the cell number change was 30.8%. Also, the AC50 under setting [1] was 5.8 µM [rising, partial curve, poor fit]. Besides, the AC50 under setting [2] is 18.4 µM [rising, single point]. With `COc1ccccc1CSc1nc2c(c(=O)n(C)c(=O)n2C)n1C`, the cell number change was -23.6%. The AC50 under setting [2] was 20.6 µM [rising, partial curve].

Take `CC1CC(C)CN(S(=O)(=O)CCNC(=O)c2ccc3c(c2)OCO3)C1` (stereo not given): the cell number change is -24.7%. Also, the AC50 under setting [1] is 0.58 µM [falling, full curve, poor fit]. Under setting [2], the AC50 was 0.206 µM [falling, partial curve, poor fit]. `Cc1cc(=O)oc2ccc(OCc3ccccc3)cc12`: the cell number change worked out at 2.16%. For the same compound, the AC50 under setting [2] was 0.00517 µM [rising, full curve, poor fit]. Turning to `COCCNC(=O)C(=O)Nc1ccc2c(c1)N(S(=O)(=O)c1cccs1)CCC2`, the cell number change is -31.3%. Also, the AC50 under setting [1] is 1.84 µM [falling, partial curve]. As for `COc1ccccc1NC(=O)N1CCCC1C(=O)Nc1ccc2c(c1)OCCO2` (stereo not given), the cell number change was found to be 0.0983%.

With `O=C(CC(SCCO)c1ccc([N+](=O)[O-])cc1)c1ccco1` (stereo not given), the cell number change is -5.97%. Consider `COc1ccc(CNC(=O)[C@@H]2CCCN2C(=O)[C@@H]2Cc3ccccc3CN2C(=O)OC(C)(C)C)cc1`, for which the cell number change was -0.943%. Also, the AC50 under setting [2] is 29.1 µM [falling, single point]. `COc1ccc(C(=S)N2CCN(C)CC2)cc1`: the cell number change is -40.9%. The AC50 under setting [1] was 29.1 µM [falling, single point]. For `N/C(=N\OC(=O)N1CCOCC1)c1ccccc1`, the cell number change is -1.34%. Besides, under setting [2], the AC50 was 0.731 µM [falling, full curve, poor fit]. Regarding `COCCCN1C(=O)c2ccc(C(=O)Nc3ccccc3OC)cc2C1=O`, the cell number change came to 17.1%. Also, under setting [2], the AC50 was 29.1 µM [rising, single point].

Values taken from PubChem BioAssay AID2685 (National Center for Advancing Translational Sciences (NCATS), 2010).
